Assay results taken from article doi:10.1101/692707.
No constants are given. Whether binding was seen depends on the method and setting. Some binding calls cover weakened binding; strength is not graded here.

By UniProt entry, the sequences of proteins in these tests, tags left out. Residues count along the entry.
UniProt P0A6F5, residues 191-376: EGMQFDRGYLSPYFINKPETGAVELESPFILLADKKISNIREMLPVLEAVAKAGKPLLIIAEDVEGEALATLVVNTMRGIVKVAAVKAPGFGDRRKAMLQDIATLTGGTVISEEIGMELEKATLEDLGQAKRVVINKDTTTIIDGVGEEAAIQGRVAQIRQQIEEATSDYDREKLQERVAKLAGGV

Molecular target: non-UMPylated GroEL (GroEL191-376aa), biotinylated by EZ-Link-Biotin (E. coli str. K12 substr. MG1655) (UniProt P0A6F5)
Assay: pull-down

- binding: binds
B1: human ornithine carbamoyltransferase (protein, UniProt P00480 33-354)
chain: NKVQLKGRDLLTLKNFTGEEIKYMLWLSADLKFRIKQKGEYLPLLQGKSLGMIFEKRSTRTRLSTETGFALLGGHPCFLTTQDIHLGVNESLTDTARVLSSMADAVLARVYKQSDLDTLAKEASIPIINGLSDLYHPIQILADYLTLQEHYSSLKGLTLSWIGDGNNILHSIMMSAAKFGMHLQAATPKGYEPDASVTKLAEQYAKENGTKLLLTNDPLEAAHGGNVLITDTWISMGQEEEKKKRLQAFQGYQVTMKTAKVAASDWTFLHCLPRKPEEVDDEVFYSPRSLVFPEAENRKWTIMAVMVSLLTDYSPQLQKPKF
